In brackets after ≈: the same amount, converted by molar mass.
Key:
[1] = Thermodynamic solubility of the compound at pH 7.4; settings: buffer
[2] = target: Voltage-gated inwardly rectifying potassium channel KCNH2 (Homo sapiens, UniProt Q12809)

Sequences of proteins named here, by UniProt entry; tags and fusion partners are left off. A change or cut given only in a name is not applied to a line headed by its entry.
UniProt Q12809: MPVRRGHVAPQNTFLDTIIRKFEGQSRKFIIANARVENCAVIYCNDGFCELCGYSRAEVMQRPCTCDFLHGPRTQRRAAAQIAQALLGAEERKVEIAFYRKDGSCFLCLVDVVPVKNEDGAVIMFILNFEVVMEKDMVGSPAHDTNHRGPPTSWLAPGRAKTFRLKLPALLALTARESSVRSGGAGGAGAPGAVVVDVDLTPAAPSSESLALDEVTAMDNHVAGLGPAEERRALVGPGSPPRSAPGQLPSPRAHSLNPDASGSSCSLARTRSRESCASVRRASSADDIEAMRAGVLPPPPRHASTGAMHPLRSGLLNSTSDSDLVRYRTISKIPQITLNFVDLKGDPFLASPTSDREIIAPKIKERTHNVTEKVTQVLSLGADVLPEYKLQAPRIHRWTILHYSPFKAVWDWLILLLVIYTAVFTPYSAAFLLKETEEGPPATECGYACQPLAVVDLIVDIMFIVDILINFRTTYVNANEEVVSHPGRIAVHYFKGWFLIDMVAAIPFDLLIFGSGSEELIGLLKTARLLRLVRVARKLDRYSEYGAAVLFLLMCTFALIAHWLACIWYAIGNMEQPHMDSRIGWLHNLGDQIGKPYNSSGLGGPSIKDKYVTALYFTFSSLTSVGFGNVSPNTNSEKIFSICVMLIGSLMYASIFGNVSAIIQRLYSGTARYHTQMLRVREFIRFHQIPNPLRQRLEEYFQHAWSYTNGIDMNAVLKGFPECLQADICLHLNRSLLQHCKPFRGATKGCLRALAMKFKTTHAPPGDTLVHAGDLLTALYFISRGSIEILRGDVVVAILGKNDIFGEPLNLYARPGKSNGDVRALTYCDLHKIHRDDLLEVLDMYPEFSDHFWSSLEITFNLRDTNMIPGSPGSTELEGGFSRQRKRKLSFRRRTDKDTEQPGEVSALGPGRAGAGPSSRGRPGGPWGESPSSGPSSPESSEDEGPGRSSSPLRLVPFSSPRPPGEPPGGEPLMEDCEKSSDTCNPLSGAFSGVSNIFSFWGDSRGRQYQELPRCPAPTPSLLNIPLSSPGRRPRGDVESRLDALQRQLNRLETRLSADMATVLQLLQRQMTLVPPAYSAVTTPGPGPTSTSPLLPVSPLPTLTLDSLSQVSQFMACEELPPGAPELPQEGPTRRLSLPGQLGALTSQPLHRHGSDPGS

CCNC(=O)CC[C@@H](CO)N(C)C(=O)c1ccc2c(c1)c1c(n2C)CC[C@@H](C2CCOCC2)C1
solubility thermodynamic [1]: 1930 µM (≈ 906 µg/mL)
IC50 [2]: > 33 µM

— ChEMBL document CHEMBL2029249, “N-Methyl-3-(tetrahydro-2H-pyran-4-yl)-2,3,4,9-tetrahydro-1H-carbazole-6-carboxamides as a novel class of cannabinoid receptors agonists with low CNS penetration” (Bioorg Med Chem Lett, 2012)
